Assay results: publication PMC8571306

The chains behind the UniProt entries cited, without tags or fusion partners. Residues count along the entry.
UniProt Q9NZQ7, residues 19-290: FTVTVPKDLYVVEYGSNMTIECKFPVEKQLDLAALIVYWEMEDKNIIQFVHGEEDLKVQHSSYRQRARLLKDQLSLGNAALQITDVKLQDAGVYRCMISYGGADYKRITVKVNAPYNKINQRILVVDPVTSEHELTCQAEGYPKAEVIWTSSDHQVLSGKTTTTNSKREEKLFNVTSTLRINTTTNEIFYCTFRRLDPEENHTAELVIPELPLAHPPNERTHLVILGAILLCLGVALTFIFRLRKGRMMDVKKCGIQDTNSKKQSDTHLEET
UniProt P45974: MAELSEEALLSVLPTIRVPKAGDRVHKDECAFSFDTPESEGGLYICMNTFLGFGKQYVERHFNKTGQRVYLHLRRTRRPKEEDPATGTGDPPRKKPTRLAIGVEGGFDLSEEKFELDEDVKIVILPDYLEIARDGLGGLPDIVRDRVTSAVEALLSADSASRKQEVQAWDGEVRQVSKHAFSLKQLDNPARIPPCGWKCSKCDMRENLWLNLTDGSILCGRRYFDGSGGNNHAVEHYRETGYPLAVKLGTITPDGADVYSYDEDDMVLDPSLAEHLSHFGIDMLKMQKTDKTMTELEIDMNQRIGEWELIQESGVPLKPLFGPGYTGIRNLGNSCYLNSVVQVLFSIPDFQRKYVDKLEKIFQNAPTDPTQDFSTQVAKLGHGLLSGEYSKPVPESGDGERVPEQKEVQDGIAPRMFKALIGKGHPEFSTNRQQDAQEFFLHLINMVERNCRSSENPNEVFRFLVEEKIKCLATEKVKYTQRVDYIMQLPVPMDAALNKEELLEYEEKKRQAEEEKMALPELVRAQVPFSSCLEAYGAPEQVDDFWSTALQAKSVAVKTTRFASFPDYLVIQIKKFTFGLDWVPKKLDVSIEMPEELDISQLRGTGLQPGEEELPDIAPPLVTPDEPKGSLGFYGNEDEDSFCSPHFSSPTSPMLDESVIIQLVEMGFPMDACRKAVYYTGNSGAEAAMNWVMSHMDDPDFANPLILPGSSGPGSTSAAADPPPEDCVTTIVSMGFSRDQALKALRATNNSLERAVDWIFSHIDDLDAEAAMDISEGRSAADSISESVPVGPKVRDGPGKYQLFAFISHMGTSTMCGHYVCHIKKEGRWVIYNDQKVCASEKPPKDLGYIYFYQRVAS

Biological target: Flag-PD-L1 (UniProt Q9NZQ7)
Assay: affinity purification with mass spectrometry; lysates of Flag-PD-L1 transfected H1299 cells, anti-flag affinity beads, extensive washing, silver staining on SDS-PAGE and mass spectrometry

binding: binds
Substance: ubiquitin specific peptidase 5 (USP5), endogenous (from UniProt P45974 1-858) (enzyme)

No constants are given. Whether binding was seen depends on the method and setting. In cells and extracts the contact can be indirect. These calls come from enrichment with a bait or labelling near it, and not all partners need be listed.
